The target of test [1] is Flag-pVHL (pCS2-Flag-pVHL) (human) (UniProt P40337). The experiment in a line: co-IP.
Test [2] concerns the target GST-pVHL (glutathione-S-transferase-pVHL, pGEX-2T-pVHL) (human) (UniProt P40337). Briefly: pull-down.
Test [3] deals with endogenous TCF7L2 (human (endogenous in HEK293T)) (UniProt Q9NQB0). Briefly: co-IP.
In test [4] the target is TCF7L2 wild type (construct of the domain mapping) (UniProt Q9NQB0). Briefly: co-IP.

The chains behind the UniProt entries cited, without tags or fusion partners. Where a name states a change or a piece, a line headed by the entry shows the natural chain unless it says otherwise. A line that says so, or that is headed by a name, gives the form on record, which may keep a tag or linker.
UniProt P40337: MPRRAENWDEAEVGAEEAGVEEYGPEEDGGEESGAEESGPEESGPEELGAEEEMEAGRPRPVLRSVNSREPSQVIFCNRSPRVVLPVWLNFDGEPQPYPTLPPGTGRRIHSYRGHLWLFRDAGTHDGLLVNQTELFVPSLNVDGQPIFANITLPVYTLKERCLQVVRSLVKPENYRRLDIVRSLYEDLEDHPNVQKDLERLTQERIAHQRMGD
UniProt Q9NQB0: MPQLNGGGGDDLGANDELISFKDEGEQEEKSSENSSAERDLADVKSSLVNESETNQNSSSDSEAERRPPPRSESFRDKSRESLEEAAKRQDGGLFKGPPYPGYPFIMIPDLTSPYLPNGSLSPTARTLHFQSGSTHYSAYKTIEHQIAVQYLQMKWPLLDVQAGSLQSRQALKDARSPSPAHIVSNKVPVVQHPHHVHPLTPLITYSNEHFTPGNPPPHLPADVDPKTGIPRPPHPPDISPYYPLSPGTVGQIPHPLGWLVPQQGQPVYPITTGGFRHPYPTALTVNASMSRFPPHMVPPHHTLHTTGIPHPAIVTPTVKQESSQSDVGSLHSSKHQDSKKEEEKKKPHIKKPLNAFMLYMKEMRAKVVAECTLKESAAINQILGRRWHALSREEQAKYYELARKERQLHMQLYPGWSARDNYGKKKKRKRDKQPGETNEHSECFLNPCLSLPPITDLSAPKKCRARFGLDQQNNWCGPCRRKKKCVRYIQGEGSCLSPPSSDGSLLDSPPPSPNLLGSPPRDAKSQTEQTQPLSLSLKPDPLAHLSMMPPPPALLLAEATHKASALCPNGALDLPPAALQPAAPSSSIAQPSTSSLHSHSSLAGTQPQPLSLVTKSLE
endogenous TCF7L2 (human (endogenous in HEK293T)) (Q9NQB0-7, form named): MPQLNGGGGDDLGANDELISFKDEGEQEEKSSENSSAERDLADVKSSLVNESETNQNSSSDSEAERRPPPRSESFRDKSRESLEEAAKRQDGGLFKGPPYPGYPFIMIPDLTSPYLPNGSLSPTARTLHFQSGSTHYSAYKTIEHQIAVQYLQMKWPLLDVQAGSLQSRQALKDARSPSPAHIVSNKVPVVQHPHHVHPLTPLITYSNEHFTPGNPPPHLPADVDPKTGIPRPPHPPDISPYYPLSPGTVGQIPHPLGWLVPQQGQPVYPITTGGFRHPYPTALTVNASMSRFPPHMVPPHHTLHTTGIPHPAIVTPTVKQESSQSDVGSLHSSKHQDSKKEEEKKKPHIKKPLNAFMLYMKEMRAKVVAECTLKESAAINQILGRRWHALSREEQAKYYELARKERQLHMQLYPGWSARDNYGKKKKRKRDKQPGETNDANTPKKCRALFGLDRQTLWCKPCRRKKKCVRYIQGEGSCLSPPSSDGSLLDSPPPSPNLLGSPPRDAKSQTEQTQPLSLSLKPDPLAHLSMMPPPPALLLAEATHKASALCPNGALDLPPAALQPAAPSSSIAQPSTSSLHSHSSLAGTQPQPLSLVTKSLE
UniProt P55036: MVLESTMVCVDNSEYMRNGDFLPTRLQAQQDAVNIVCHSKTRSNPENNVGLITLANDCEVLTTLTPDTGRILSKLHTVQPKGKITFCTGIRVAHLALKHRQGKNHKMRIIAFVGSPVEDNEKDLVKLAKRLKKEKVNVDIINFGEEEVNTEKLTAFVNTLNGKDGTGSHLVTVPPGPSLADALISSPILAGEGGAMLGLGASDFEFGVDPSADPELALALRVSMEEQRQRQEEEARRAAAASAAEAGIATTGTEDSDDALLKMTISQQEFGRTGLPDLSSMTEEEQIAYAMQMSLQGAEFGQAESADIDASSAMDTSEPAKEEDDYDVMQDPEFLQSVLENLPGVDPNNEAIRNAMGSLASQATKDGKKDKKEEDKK

These are yes or no findings as the source states them, for the method shown. Binding seen in cells or lysates may run through a third protein. Some entries that bind do so weakly or less than the wild type.

“endogenous 19S regulatory subunit RPN10 (from UniProt P55036 1-377)”: the binding result in test [1] was “binds”. Turning to “endogenous TCF7L2 (from UniProt Q9NQB0-7 1-602)”, the binding entry in test [2] is on record as “binds”. For “endogenous pVHL (von Hippel-Lindau protein) (from UniProt P40337 1-213)”, the binding entry in test [3] is “binds”. Take “pVHL (in the co-IP that maps the TCF7L2 domains) (from UniProt P40337 1-213)”: in test [4], the binding result is on record as “binds”.

The values above are taken from article doi:10.1101/2021.10.14.464355.
